Results deposited as PubChem BioAssay AID1224830 (NIAID, 2016).

Assay: 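Regulators of TLR4 signalling towards TNF-alpha in macrophage-like cells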 (primary screen)
Cells: human THP-1 monocytic leukaemia cells, TNF dual-luciferase reporter clone, PMA-differentiated to macrophage-like cells
Knock-down reagent: siRNA pool against human genes, 50 nM
Duration: LPS for 4 h, given about 3 days after siRNA transfection
Treatment: bacterial LPS (TLR4 ligand), 10 ng/ml
Read-out: 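TNF firefly reporter luminescence divided by renilla, normalised to the plate median, then turned into a robust z-score for each replicate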
Direction: TNF reporter robust z-score: higher = stronger TNF reporter response to LPS
Hit rule: 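Each well counts as active if its z-score is over 2.8 or under -1.5; controls are left without a call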
The whole screen tested about 18,000 reagents; shown is an unselected part. About 2,900 of them (16%) were called active. 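Calls are made per well; low scores hint the gene aids the LPS response, high scores that it dampens it.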 A number with no mark means an inactive call. Repeated entries: four replicate wells of each siRNA pool. Reagent sequences are not shown.

TNF reporter robust z-score,target gene
-0.67,KLC1 (GeneID 3831)
-0.32,KLC1 (GeneID 3831)
-0.48,KLC1 (GeneID 3831)
0,KLC1 (GeneID 3831)
0.45,NRSN1 (GeneID 140767)
-0.46,NRSN1 (GeneID 140767)
0.98,NRSN1 (GeneID 140767)
-0.09,NRSN1 (GeneID 140767)
-0.53,C10orf95 (GeneID 79946)
-0.94,C10orf95 (GeneID 79946)
-0.82,C10orf95 (GeneID 79946)
1.02,C10orf95 (GeneID 79946)
0.52,ACTL6A (GeneID 86)
0.8,ACTL6A (GeneID 86)
-0.41,ACTL6A (GeneID 86)
-1.48,IPO5 (GeneID 3843)
-1.46,IPO5 (GeneID 3843)
-1.3,IPO5 (GeneID 3843)
-0.93,IPO5 (GeneID 3843)
-0.41,ARFGAP3 (GeneID 26286)
0,ARFGAP3 (GeneID 26286)
-1.18,ARFGAP3 (GeneID 26286)
5.07 (active),ARFGAP3 (GeneID 26286)
1.92,IRAK2 (GeneID 3656)
0.18,IRAK2 (GeneID 3656)
1.07,IRAK2 (GeneID 3656)
0.5,IRAK2 (GeneID 3656)
-1.36,TBC1D8B (GeneID 54885)
-0.56,TBC1D8B (GeneID 54885)
-1.05,TBC1D8B (GeneID 54885)
2.45,SLC41A3 (GeneID 54946)
1.09,SLC41A3 (GeneID 54946)
1.69,SLC41A3 (GeneID 54946)
2,SLC41A3 (GeneID 54946)
-0.02,PDS5B (GeneID 23047)
0.8,PDS5B (GeneID 23047)
0.72,PDS5B (GeneID 23047)
1.31,PDS5B (GeneID 23047)
-0.41,CSKMT (GeneID 751071)
0.29,CSKMT (GeneID 751071)
-0.37,CSKMT (GeneID 751071)
0.25,CSKMT (GeneID 751071)
0.78,TIPE3 (GeneID 388121)
0.83,TIPE3 (GeneID 388121)
1.04,TIPE3 (GeneID 388121)
2.08,TIPE3 (GeneID 388121)
